These results are taken from paper PMC8508650.

Sequences of proteins named here, by UniProt entry; tags and fusion partners are left off. A change or cut given only in a name is not applied to a line headed by its entry. Residues count along the entry.
UniProt P06276, residues 29-602: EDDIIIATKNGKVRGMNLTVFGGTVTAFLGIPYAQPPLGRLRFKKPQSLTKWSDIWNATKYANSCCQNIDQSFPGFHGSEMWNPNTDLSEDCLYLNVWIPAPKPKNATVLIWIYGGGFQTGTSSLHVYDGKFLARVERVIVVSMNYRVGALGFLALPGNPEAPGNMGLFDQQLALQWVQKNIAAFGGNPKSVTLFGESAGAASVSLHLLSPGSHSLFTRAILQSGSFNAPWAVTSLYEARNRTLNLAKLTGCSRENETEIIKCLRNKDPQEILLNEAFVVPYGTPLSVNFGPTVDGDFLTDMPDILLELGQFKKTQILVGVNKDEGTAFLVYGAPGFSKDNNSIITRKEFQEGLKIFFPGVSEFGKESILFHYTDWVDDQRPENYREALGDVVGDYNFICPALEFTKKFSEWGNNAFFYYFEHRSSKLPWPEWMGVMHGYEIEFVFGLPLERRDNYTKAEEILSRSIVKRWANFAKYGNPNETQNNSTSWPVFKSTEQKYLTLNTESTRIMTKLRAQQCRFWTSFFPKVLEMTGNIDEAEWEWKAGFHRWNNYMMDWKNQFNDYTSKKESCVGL
UniProt P02647: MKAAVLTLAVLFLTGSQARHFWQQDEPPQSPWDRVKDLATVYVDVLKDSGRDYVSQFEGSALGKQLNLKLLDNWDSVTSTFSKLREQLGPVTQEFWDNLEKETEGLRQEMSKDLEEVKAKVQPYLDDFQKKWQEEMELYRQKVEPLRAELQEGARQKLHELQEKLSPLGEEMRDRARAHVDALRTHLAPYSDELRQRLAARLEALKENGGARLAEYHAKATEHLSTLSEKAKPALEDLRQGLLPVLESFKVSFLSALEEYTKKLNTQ

These are yes or no findings as the source states them, for the method shown. In cells and extracts the contact can be indirect. Binding can be weak; no strength is given.

The assay has as its target butyrylcholinesterase (human (endogenous in serum)) (UniProt P06276). The experiment in a line: co-IP; fraction 12 of the iodixanol density gradient of human serum; 10 µg mouse anti-BChE monoclonal antibody 3E8 immobilised on AminoLink Plus Coupling Resin (Pierce Co-IP Kit); overnight at 4 °C; washed two times with 200 µL IP Lysis/Wash Buffer; eluate identified by mass spectrometry; quenched resin without antibody as control.

ApoA-I (from UniProt P02647): the binding entry is reported as “binds”.
